According to patent publication US20170306050A1:
Results are given in words; binding and its absence hold for the method and conditions named. Some entries that bind do so weakly or less than the wild type.

Chains of the proteins cited; added tags and fusions are not shown. Lines headed by an entry give the natural chain unless they say otherwise; changes in a name come on top.
UniProt P14780: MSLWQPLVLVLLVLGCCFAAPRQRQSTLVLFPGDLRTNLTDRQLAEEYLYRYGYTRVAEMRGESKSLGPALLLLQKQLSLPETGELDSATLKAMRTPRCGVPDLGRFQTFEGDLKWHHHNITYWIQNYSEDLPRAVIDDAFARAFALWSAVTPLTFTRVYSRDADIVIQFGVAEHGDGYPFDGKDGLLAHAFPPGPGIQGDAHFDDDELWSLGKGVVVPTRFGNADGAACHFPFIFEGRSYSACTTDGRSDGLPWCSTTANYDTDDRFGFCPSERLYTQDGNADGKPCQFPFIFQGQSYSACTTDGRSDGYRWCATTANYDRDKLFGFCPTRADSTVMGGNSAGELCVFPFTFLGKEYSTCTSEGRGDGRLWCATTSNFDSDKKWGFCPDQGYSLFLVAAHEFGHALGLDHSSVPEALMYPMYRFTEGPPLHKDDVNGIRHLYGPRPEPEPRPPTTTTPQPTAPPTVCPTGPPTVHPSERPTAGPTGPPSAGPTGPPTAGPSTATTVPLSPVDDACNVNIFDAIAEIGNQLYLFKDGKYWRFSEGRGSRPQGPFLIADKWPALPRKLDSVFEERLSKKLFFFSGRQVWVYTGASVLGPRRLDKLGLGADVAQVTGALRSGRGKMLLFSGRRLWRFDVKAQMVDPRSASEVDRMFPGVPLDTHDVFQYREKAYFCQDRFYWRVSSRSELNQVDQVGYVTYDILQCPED

Tests used:
active MMP9 (human) [1] = target: active MMP9 (human) (UniProt P14780); assay: Western blot
[2] = target: T1, neo-epitope peptide FQTFEGD; assay: peptide ELISA (FIG. 1C)
T1 sequence (peptide): FQTFEGD

[3] = target: T2, fragment of the neo-epitope QTFEGD; assay: peptide ELISA (FIG. 1C)
T2 sequence (peptide): QTFEGD

[4] = target: T3, total fragment of cleavage site …; assay: peptide ELISA (FIG. 1C)
T3 sequence (peptide): VPDLGRFQTFEGD

active MMP9 (human) [5] = target: active MMP9 (human) (UniProt P14780); assay: Li-Cor Western blot of colon lysates from UC and Crohn's disease patients
[6] = target: active MMP9 with an added N-terminal aspartic acid (human) (UniProt P14780); assay: immunohistochemistry (FIG. 1B)

binding (active MMP9 (human) [1]): binds
binding [2]: binds
binding [4]: binds
binding (active MMP9 (human) [5]): binds
binding [6]: binds
B1: Active AB (antibody, V domains shown)
VH: QSVEESGGRLVTPGTPLTLTCTASGFTISSYHMTWVRQAPMKGLEWIGTISSSGSTYYASWAKGRFTISKTSSTTVDLKITSPATEDTATYFCARSVPGDSSGEIWGRGTLVTVSS
VL: AQVLTQTASPVSAAVGGTVTINCQSSQSVYNKNWLAWYQQKPGQPPKRLIYSASTLDSGVSSRFKGSGSGTQFTLTISGVQCDDAATYYCQGEFSCSRGDCSAFGGGTEVVVQG
binding [3]: binds
